Test: Sensory properties of oil component blended with alkanediol, assessed by untrained panelists on the backside of the hand
Assay type: in vivo
Conditions: for Spreading with: 30 s after application; for Spreading with / Fatty/greasy skin feeling with: scale 1 (low) to 5 (high); for Fatty/greasy skin feeling with: after 2 minutes; for Fatty/greasy skin feeling Delta / Spreading Delta: with vs without alkanediol
Excerpt: For evaluating the sensory behavior, oil components specified in the following Table 13 were blended with 1,2-heptanediol or 2,3-heptanediol or a mixture of 1,2-heptanediol and 2,3-heptanediol or 1,2-octanediol or 2,3-octanediol or a mixture of 1,2-octanediol and 2,3-octanediol (formulation) and assessed by untrained panelists in comparison to the oil component without addition of the specified alkanediols (placebo).
Test procedure: • Hands were pre-washed with liquid soap by following a defined procedure; • 30 μl of corresponding sample was applied on the backside of each hand (randomized); • After 30 s the spreading behavior of the respective formulation on skin was evaluated versus the respective oil component without 1,2-heptanediol on a scale from 1 to 5 (1=low spreading; 5=high spreading); • The samples were distributed with the fingertips of middle and forefinger with 2×5 cycles; • After 2 minutes, the fatty/greasy skin feeling was evaluated on a scale from 1 to 5 (1=low fatty/greasy skin feeling; 5=high fatty/greasy skin feeling); • Furthermore, the applicants were asked to assess the absorption, i.e. the impression of amount of remaining residue on the skin on a scale from 1 to 5 (1=low absorption; 5=high absorption).

[1] = in Butyrospermum Parkii (Shea) Butter
[2] = in Caprylic Capric Triglyceride (neutral oil)
[3] = in Cetearyl Nonanoate (SymMollient S)
[4] = in Ethylhexyl Methoxycinnamate (Neo Heliopan AV)
[5] = in Ethylhexyl Salicylate (Neo Heliopan OS)
[6] = in Helianthus Annuus (Sunflower) Seed Oil
[7] = in Homosalate (Neo Heliopan HMS)
[8] = in Isoamyl p-Methoxycinnamate (Neo Heliopan E 1000)
[9] = in Octocrylene (Neo Heliopan 303)
[10] = in Propanediol Dicaprylate/Dicaprate (Symollient PDCC)
[11] = in Prunus Amygdalus Dulcis (Sweet Almond) Oil
[12] = in Simmondsia Chinensis (Jojoba) Seed Oil

CCCCCC(O)CO (stereo not drawn) [1,2-heptanediol]
Spreading with (in Argan Oil): 4.2 | Fatty/greasy skin feeling with (in Argan Oil): 2.4 | Fatty/greasy skin feeling Delta (in Argan Oil): 1.6 | Spreading Delta (in Argan Oil): 2.2 | Spreading with (in Avocado Oil): 4.4 | Fatty/greasy skin feeling with (in Avocado Oil): 2.6 | Fatty/greasy skin feeling Delta (in Avocado Oil): 1.2 | Spreading Delta (in Avocado Oil): 2.2 | Spreading with [1]: 4 | Fatty/greasy skin feeling with [1]: 2 | Fatty/greasy skin feeling Delta [1]: 2 | Spreading Delta [1]: 2 | Spreading with (in Cacao butter): 3.8 | Fatty/greasy skin feeling with (in Cacao butter): 3 | Fatty/greasy skin feeling Delta (in Cacao butter): 1.2 | Spreading Delta (in Cacao butter): 2 | Spreading with [2]: 3.4 | Fatty/greasy skin feeling with [2]: 2.9 | Fatty/greasy skin feeling Delta [2]: 0.3 | Spreading Delta [2]: 1.5 | Spreading with (in Castor Oil): 2.2 | Fatty/greasy skin feeling with (in Castor Oil): 2.8 | Fatty/greasy skin feeling Delta (in Castor Oil): 1.4 | Spreading Delta (in Castor Oil): 1 | Spreading with [3]: 4.2 | Fatty/greasy skin feeling with [3]: 2 .5 | Fatty/greasy skin feeling Delta [3]: 0.7 | Spreading Delta [3]: 2.5 | Spreading with (in Chlorella oil (biotech)): 4 | Fatty/greasy skin feeling with (in Chlorella oil (biotech)): 2.7 | Fatty/greasy skin feeling Delta (in Chlorella oil (biotech)): 0.3 | Spreading Delta (in Chlorella oil (biotech)): 2.7 | Spreading with (in Coconut Oil): 4.2 | Fatty/greasy skin feeling with (in Coconut Oil): 1.8 | Fatty/greasy skin feeling Delta (in Coconut Oil): 1.4 | Spreading Delta (in Coconut Oil): 1.8 | Spreading with [4]: 3.7 | Fatty/greasy skin feeling with [4]: 3.2 | Fatty/greasy skin feeling Delta [4]: 0.5 | Spreading Delta [4]: 2.2 | Spreading with [5]: 4.3 | Fatty/greasy skin feeling with [5]: 1.8 | Fatty/greasy skin feeling Delta [5]: 1.9 | Spreading Delta [5]: 2.5 | Spreading with (in Grapeseed Oil): 3.8 | Fatty/greasy skin feeling with (in Grapeseed Oil): 2.2 | Fatty/greasy skin feeling Delta (in Grapeseed Oil): 2 | Spreading Delta (in Grapeseed Oil): 1.8 | Spreading with [6]: 4.2 | Fatty/greasy skin feeling with [6]: 2.3 | Fatty/greasy skin feeling Delta [6]: 1.5 | Spreading Delta [6]: 3 | Spreading with (in Hexyldecanol (Eutanol G)): 3.5 | Fatty/greasy skin feeling with (in Hexyldecanol (Eutanol G)): 3 | Fatty/greasy skin feeling Delta (in Hexyldecanol (Eutanol G)): 0 | Spreading Delta (in Hexyldecanol (Eutanol G)): 1 | Spreading with [7]: 2.8 | Fatty/greasy skin feeling with [7]: 3.2 | Fatty/greasy skin feeling Delta [7]: 0.5 | Spreading Delta [7]: 0.8 | Spreading with [8]: 2.7 | Fatty/greasy skin feeling with [8]: 2.7 | Fatty/greasy skin feeling Delta [8]: 1.3 | Spreading Delta [8]: 1.2 | Spreading with (in Microalgae oil): 3.8 | Fatty/greasy skin feeling with (in Microalgae oil): 2.7 | Fatty/greasy skin feeling Delta (in Microalgae oil): 0.8 | Spreading Delta (in Microalgae oil): 1.6 | Spreading with [9]: 2.7 | Fatty/greasy skin feeling with [9]: 3.3 | Fatty/greasy skin feeling Delta [9]: 1.5 | Spreading Delta [9]: 1.7 | Spreading with (in Olive Oil): 4 | Fatty/greasy skin feeling with (in Olive Oil): 2 | Fatty/greasy skin feeling Delta (in Olive Oil): 1.8 | Spreading Delta (in Olive Oil): 1.8 | Spreading with [10]: 2.9 | Fatty/greasy skin feeling with [10]: 2.5 | Fatty/greasy skin feeling Delta [10]: 0.2 | Spreading Delta [10]: 1.3 | Spreading with [11]: 3 | Fatty/greasy skin feeling with [11]: 2.5 | Fatty/greasy skin feeling Delta [11]: 0.8 | Spreading Delta [11]: 1.7 | Spreading with [12]: 4 | Fatty/greasy skin feeling with [12]: 2.8 | Fatty/greasy skin feeling Delta [12]: 1 | Spreading Delta [12]: 2.5

CCCCCCC(O)CO (stereo not drawn) [1,2-octanediol]
Spreading with (in Argan Oil): 3.8 | Fatty/greasy skin feeling with (in Argan Oil): 2.6 | Fatty/greasy skin feeling Delta (in Argan Oil): 1.4 | Spreading Delta (in Argan Oil): 1.8 | Spreading with (in Avocado Oil): 4 | Fatty/greasy skin feeling with (in Avocado Oil): 3 | Fatty/greasy skin feeling Delta (in Avocado Oil): 0.8 | Spreading Delta (in Avocado Oil): 2 | Spreading with (in Cacao butter): 3.8 | Fatty/greasy skin feeling with (in Cacao butter): 3.2 | Fatty/greasy skin feeling Delta (in Cacao butter): 1 | Spreading Delta (in Cacao butter): 2 | Spreading with (in Castor Oil): 1.6 | Fatty/greasy skin feeling with (in Castor Oil): 3.6 | Fatty/greasy skin feeling Delta (in Castor Oil): 0.6 | Spreading Delta (in Castor Oil): 0.4 | Spreading with (in Coconut Oil): 4.4 | Fatty/greasy skin feeling with (in Coconut Oil): 2.6 | Fatty/greasy skin feeling Delta (in Coconut Oil): 1 | Spreading Delta (in Coconut Oil): 2 | Spreading with (in Grapeseed Oil): 4 | Fatty/greasy skin feeling with (in Grapeseed Oil): 2.8 | Fatty/greasy skin feeling Delta (in Grapeseed Oil): 1.4 | Spreading Delta (in Grapeseed Oil): 2 | Spreading with [6]: 4.2 | Fatty/greasy skin feeling with [6]: 2 | Fatty/greasy skin feeling Delta [6]: 1.8 | Spreading Delta [6]: 2.8 | Spreading with (in Olive Oil): 4.2 | Fatty/greasy skin feeling with (in Olive Oil): 2.6 | Fatty/greasy skin feeling Delta (in Olive Oil): 1.2 | Spreading Delta (in Olive Oil): 2

CCCCC(O)C(C)O (stereo not drawn) [2,3-heptanediol]
Spreading with (in Argan Oil): 3 | Fatty/greasy skin feeling with (in Argan Oil): 2.6 | Fatty/greasy skin feeling Delta (in Argan Oil): 1.4 | Spreading Delta (in Argan Oil): 1 | Spreading with (in Avocado Oil): 3.8 | Fatty/greasy skin feeling with (in Avocado Oil): 2 | Fatty/greasy skin feeling Delta (in Avocado Oil): 1.8 | Spreading Delta (in Avocado Oil): 1.6 | Spreading with (in Cacao butter): 3 | Fatty/greasy skin feeling with (in Cacao butter): 3.4 | Fatty/greasy skin feeling Delta (in Cacao butter): 0.8 | Spreading Delta (in Cacao butter): 1.2 | Spreading with [2]: 3.6 | Fatty/greasy skin feeling with [2]: 3.4 | Fatty/greasy skin feeling Delta [2]: −0.2 | Spreading Delta [2]: 1.7 | Spreading with (in Castor Oil): 1.6 | Fatty/greasy skin feeling with (in Castor Oil): 3.6 | Fatty/greasy skin feeling Delta (in Castor Oil): 0.6 | Spreading Delta (in Castor Oil): 0.4 | Spreading with (in Coconut Oil): 3.4 | Fatty/greasy skin feeling with (in Coconut Oil): 2.4 | Fatty/greasy skin feeling Delta (in Coconut Oil): 0.8 | Spreading Delta (in Coconut Oil): 1 | Spreading with (in Grapeseed Oil): 3.6 | Fatty/greasy skin feeling with (in Grapeseed Oil): 2.6 | Fatty/greasy skin feeling Delta (in Grapeseed Oil): 1.6 | Spreading Delta (in Grapeseed Oil): 1.6 | Spreading with [6]: 3.8 | Fatty/greasy skin feeling with [6]: 2.6 | Fatty/greasy skin feeling Delta [6]: 1 | Spreading Delta [6]: 2.2 | Spreading with (in Olive Oil): 4 | Fatty/greasy skin feeling with (in Olive Oil): 2.2 | Fatty/greasy skin feeling Delta (in Olive Oil): 1.6 | Spreading Delta (in Olive Oil): 1.8

Reference: patent US20230293405A1, “Compositions Comprising UV-Filters and One or More (Bio)-Alkanediols” (Symrise AG, priority 2020, published 2023)
